System: HeLa cells
Assay: ChemProteoBase proteomic profiling (2-D DIGE)
Assay type: cell-based, human
Conditions: 18 h, NPD7155 300 μM, NPD9948 300 μM, SCH51344 60 μM, (S)-crizotinib 20 μM, TH287 3 μM

SMILES	proteomic profile similarity (hierarchical clustering)
C[C@H](Oc1cc(-c2cnn(C3CCNCC3)c2)cnc1N)c1c(Cl)ccc(F)c1Cl [(S)-crizotinib, reference compound]	did not belong to any clusters of the standard compounds
CNc1cc(-c2cccc(Cl)c2Cl)nc(N)n1 [TH287, reference compound]	shared similarity with tubulin-targeting agents

Reference: PMC4876372 (Scientific Reports, 2016)
